Reference: paper doi:10.1101/2025.11.18.689169v1 (bioRxiv, 2025)

System: plasma components
Assay: FPLC overall area under the curve in human plasma
Type: binding
Details: 100 µM in 10% human plasma, absorbance 700 nm; for overall area under the curve (AUC) of FPLC plots: 37°C 30 min

Molecule	overall area under the curve (AUC) of FPLC plots	overall FPLC AUC, fold lower than that of C12 [fold]	FPLC AUC value, fold lower than C16 [fold]
GGGHGDCDD [C12]	198.0 ± 27.6		
CC1(C)C(/C=C/C=C/C=C/C=C2\N(CCCCS(=O)(=O)O)c3ccc4ccccc4c3C2(C)C)=[N+](CCCCS(=O)(=O)[O-])c2ccc3ccccc3c21 [ICG, indocyanine green, reference compound]		18.5	
GGGHGDCDD [C18]	242.4 ± 10.8		1.5
GGGHGDCDD [C16]	368.1 ± 78.7		
